Data as given in US20060293395A1, “Methods for treating a mammal before, during and after cardiac arrest” (priority 2004, published 2006).

What was measured:
male domestic pigs = test: Example 3: dobutamine vs levosimendan in the porcine model of cardiac arrest and cardiac resuscitation; format: in vivo, pig; settings: FIG. 21
Procedure: Experimental Preparation: The experiments were performed in the porcine model of cardiac arrest and cardiac resuscitation which has been extensively exercised. (21,22). […] Anesthesia was initiated by intramuscular injection of ketamine (20 mg kg^−1) and was completed by ear vein injection of sodium pentobarbital (30 mg kg^−1). Additional 8 mg kg^−1 doses of sodium pentobarbital were injected to maintain anesthesia at intervals of one hour. A cuffed endotracheal tube was advanced into the trachea. Animals were mechanically ventilated with a volume of 15 mL kg^−1, peak airway flow of 40 L min^−1, and FiO2 of 0.2 with the aid of a volume-controlled ventilator (Model MA-1, Puritan-Bennett, Carlsbad, Calif.). End-tidal PCO2 (PETCO2) was monitored with an infrared analyzer (Model 01R-7101A, Nihon Kohden Corp, Tokyo, Japan). Respiratory frequency was adjusted to maintain PETCO2 between 35 and 40 mmHg. Blood temperature was maintained at 37±0.5° C. with the aid of infrared heating lamps, as required.
For the measurement of left ventricular functions, a 5.5/7.5 MHz biplane with pulse-wave Doppler transesophageal echocardiographic tranducer with 4-way flexure (Model 21363A, Hewlett-Packard Co. Medical Products Group, Andover, Mass.) was advanced from the incisor teeth into the esophagus for a distance of approximately 40 cm. […] The electrocardiographic (EKG) lead II was continuously recorded. […]

Male Sprague-Dawley rats = test: Example 1: post-resuscitation myocardial dysfunction after VF cardiac arrest, drug infusion for 240 min post-resuscitation

SMILES	coronary venous lactate (male domestic pigs)	End Tidal CO2 [EtCO2] (Male Sprague-Dawley rats; PR10) [mmHg]	End Tidal CO2 [EtCO2] (Male Sprague-Dawley rats; PR40) [mmHg]	PaCO2 (Male Sprague-Dawley rats; PR40) [mmHg]	PaO2 (Male Sprague-Dawley rats; PR40) [mmHg]	aLactate (Male Sprague-Dawley rats; PR40) [mmol/L]	pHa (Male Sprague-Dawley rats; PR40 (post-resuscitation)) [units]	End Tidal CO2 [EtCO2] (Male Sprague-Dawley rats; PR70) [mmHg]	End Tidal CO2 [EtCO2] (Male Sprague-Dawley rats; PR120) [mmHg]	PaCO2 (Male Sprague-Dawley rats; PR120) [mmHg]	PaO2 (Male Sprague-Dawley rats; PR120) [mmHg]	aLactate (Male Sprague-Dawley rats; PR120) [mmol/L]	pHa (Male Sprague-Dawley rats; PR120) [units]	End Tidal CO2 [EtCO2] (Male Sprague-Dawley rats; PR180) [mmHg]	End Tidal CO2 [EtCO2] (Male Sprague-Dawley rats; PR240) [mmHg]	PaCO2 (Male Sprague-Dawley rats; PR240) [mmHg]	PaO2 (Male Sprague-Dawley rats; PR240) [mmHg]	aLactate (Male Sprague-Dawley rats; PR240) [mmol/L]	pHa (Male Sprague-Dawley rats; PR240) [units]
CC(CCc1ccc(O)cc1)NCCc1ccc(O)c(O)c1 (centres unmarked) [Dobutamine]	No differences	33 ± 5	35 ± 3	36.6 ± 3.8	342.2 ± 62.7	2.2 ± 0.6	7.40 ± 0.05	35 ± 4	38 ± 1	39.2 ± 4.5	389.9 ± 62.3	1.2 ± 0.4	7.39 ± 0.04	36 ± 2	35 ± 3	37.4 ± 5.9	380.5 ± 40.2	1.1 ± 0.5	7.41 ± 0.05
C[C@@H]1CC(=O)NN=C1c1ccc(NN=C(C#N)C#N)cc1 [Levosimendan]	No differences	33 ± 6	30 ± 6	32.3 ± 6.7	328.2 ± 71.7	3.9 ± 1.8	7.40 ± 0.02	35 ± 3	34 ± 4	33.4 ± 6.2	383.0 ± 43	1.6 ± 0.6	7.40 ± 0.04	32 ± 5	30 ± 7	30.7 ± 8.7	391.6 ± 60.4	1.4 ± 0.6	7.39 ± 0.03
